# Data as given in the supplement of paper PMC8728848.
# The other results are listed elsewhere or left out.
# B1: SUN4 (Saccharomyces cerevisiae), P53616 (protein)
# chain: MGSSHHHHHHSSGLVPRGSHNGSIYGDLADFSGPYEKFEDGTIPCGQFPSGQGVIPISWLDEGGWSGVENTDTSTGGSCKEGSYCSYACQPGMSKTQWPSDQPSDGRSIGGLLCKDGYLYRSNTDTDYLCEWGVDAAYVVSELSNDVAICRTDYPGTENMVIPTYVQAGDSLPLTVVDQDTYYTWQGLKTSAQYYVNNAGISVEDACVWGSSSSGVGNWAPLNFGAGSSDGVAYLSLIPNPNNGNALNFNVKIVAADDSSTVNGECIYENGSFSGGSDGCTVSVTAGKAKFVLYN
# Legend:
# Experiment in all cases: glycan array binding signal (z-score within array); higher = stronger binding
# Conditions in all cases: glycan notation: IUPAC condensed, linker removed
# [1] = biological target: GlcNAc(b1-3)Gal(b1-4)GlcNAc(b1-3)Gal(b1-4)GlcNAc(b1-3)Gal(b1-4)GlcNAc(b1-3)Gal(b1-4)GlcNAc(b1-2)[GlcNAc(b1-3)Gal(b1-4)GlcNAc(b1-3)Gal(b1-4)GlcNAc(b1-3)Gal(b1-4)GlcNAc(b1-3)Gal(b1-4)GlcNAc(b1-6)]Man(a1-6)[GlcNAc(b1-3)Gal(b1-4)GlcNAc(b1-3)Gal(b1-4)GlcNAc(b1-3)Gal(b1-4)GlcNAc(b1-3)Gal(b1-4)GlcNAc(b1-2)Man(a1-3)]Man(b1-4)GlcNAc(b1-4)[Fuc(a1-6)]GlcNAc
# How it was run: (§1)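 The Consortium for Functional Glycomics database supplied 3228 glycan arrays, of which those lacking an available protein sequence were dropped. The binding signal, a within-array Z-score, was averaged across arrays of the same protein sequence and across linkers. Negative scores can be read as non-binding.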
# [2] = biological target: GlcNAc(b1-3)Gal(b1-4)GlcNAc(b1-3)Gal(b1-4)GlcNAc(b1-3)GalNAc
# How it was run: as §1
# [3] = biological target: GlcNAc(b1-3)Gal(b1-4)GlcNAc(b1-3)GalNAc
# How it was run: as §1
# [4] = biological target: GlcNAc(b1-3)Gal(b1-4)GlcNAc(b1-3)[GlcNAc(b1-3)Gal(b1-4)GlcNAc(b1-3)]GalNAc
# How it was run: as §1
# [5] = biological target: GlcNAc(b1-3)Gal(b1-4)GlcNAc(b1-6)[Gal(b1-3)]GalNAc
# How it was run: as §1
# [6] = biological target: GlcNAc(b1-3)Gal(b1-4)GlcNAc(b1-6)[GlcNAc(b1-3)Gal(b1-3)]GalNAc
# How it was run: as §1
# [7] = biological target: GlcNAc(b1-3)Gal(b1-4)GlcNAc(b1-6)[GlcNAc(b1-3)]Gal(b1-4)GlcNAc
# How it was run: as §1
# GlcNAc(b1-3)GalNAc = biological target: GlcNAc(b1-3)GalNAc
# How it was run: as §1
# GlcNAc(b1-3)Man = biological target: GlcNAc(b1-3)Man
# How it was run: as §1
# [8] = biological target: GlcNAc(b1-3)[GlcNAc(b1-4)][GlcNAc(b1-6)]GlcNAc
# How it was run: as §1
# [9] = biological target: GlcNAc(b1-3)[GlcNAc(b1-6)]Gal(b1-4)GlcNAc
# How it was run: as §1
# [10] = biological target: GlcNAc(b1-3)[GlcNAc(b1-6)]GalNAc
# How it was run: as §1
# [11] = biological target: GlcNAc(b1-4)Gal(b1-4)GlcNAc
# How it was run: as §1
# GlcNAc(b1-4)GlcNAc = biological target: GlcNAc(b1-4)GlcNAc
# How it was run: as §1
# [12] = biological target: GlcNAc(b1-4)GlcNAc(b1-4)GlcNAc
# How it was run: as §1
# [13] = biological target: GlcNAc(b1-4)GlcNAc(b1-4)GlcNAc(b1-4)GlcNAc(b1-4)GlcNAc
# How it was run: as §1
# [14] = biological target: GlcNAc(b1-4)GlcNAc(b1-4)GlcNAc(b1-4)GlcNAc(b1-4)GlcNAc(b1-4)GlcNAc
# How it was run: as §1
# [15] = biological target: GlcNAc(b1-4)[GlcNAc(b1-6)]GalNAc
# How it was run: as §1
# [16] = biological target: GlcNAc(b1-6)Gal(b1-4)GlcNAc
# How it was run: as §1
# GlcNAc(b1-6)GalNAc = biological target: GlcNAc(b1-6)GalNAc
# How it was run: as §1
# [17] = biological target: GlcNAc6S(b1-3)Gal(b1-4)GlcNAc
# How it was run: as §1
# Kdn(a2-3)Gal(b1-3)GalNAc = biological target: Kdn(a2-3)Gal(b1-3)GalNAc
# How it was run: as §1
# Kdn(a2-3)Gal(b1-3)GlcNAc = biological target: Kdn(a2-3)Gal(b1-3)GlcNAc
# How it was run: as §1
# Kdn(a2-3)Gal(b1-4)Glc = biological target: Kdn(a2-3)Gal(b1-4)Glc
# How it was run: as §1
# Kdn(a2-3)Gal(b1-4)GlcNAc = biological target: Kdn(a2-3)Gal(b1-4)GlcNAc
# How it was run: as §1
# [18] = biological target: Kdn(a2-3)Gal(b1-4)[Fuc(a1-3)]GlcNAc
# How it was run: as §1
# Kdn(a2-6)Gal(b1-4)GlcNAc = biological target: Kdn(a2-6)Gal(b1-4)GlcNAc
# How it was run: as §1
# [19] = biological target: Man(a1-2)Man(a1-2)Man(a1-3)Man
# How it was run: as §1
# [20] = biological target: Man(a1-2)Man(a1-2)Man(a1-6)[Man(a1-3)]Man
# How it was run: as §1
# Man(a1-2)Man(a1-3)Man = biological target: Man(a1-2)Man(a1-3)Man
# How it was run: as §1
# [21] = biological target: Man(a1-2)Man(a1-3)[Man(a1-2)Man(a1-6)]Man
# How it was run: as §1
# [22] = biological target: Man(a1-2)Man(a1-3)[Man(a1-2)Man(a1-6)]Man(a1-6)[Man(a1-2)Man(a1-2)Man(a1-3)]Man
# How it was run: as §1
# [23] = biological target: Man(a1-2)Man(a1-3)[Man(a1-2)Man(a1-6)]Man(a1-6)[Man(a1-2)Man(a1-2)Man(a1-3)]Man(b1-4)GlcNAc(b1-4)GlcNAc
# How it was run: as §1
# [24] = biological target: Man(a1-2)Man(a1-3)[Man(a1-6)]Man(a1-6)[Man(a1-2)Man(a1-3)]Man(b1-4)GlcNAc(b1-4)GlcNAc
# How it was run: as §1
# [25] = biological target: Man(a1-2)Man(a1-6)[Man(a1-3)]Man(a1-6)[Man(a1-2)Man(a1-2)Man(a1-3)]Man
# How it was run: as §1
# [26] = biological target: Man(a1-2)Man(a1-6)[Man(a1-3)]Man(a1-6)[Man(a1-2)Man(a1-2)Man(a1-3)]Man(b1-4)GlcNAc(b1-4)GlcNAc
# How it was run: as §1
# Man(a1-3)[Man(a1-6)]Man = biological target: Man(a1-3)[Man(a1-6)]Man
# How it was run: as §1
binder,measurement,setting,value
B1,glycan array binding signal (z-score),[1],1.55
same,glycan array binding signal (z-score),[2],0.262
same,glycan array binding signal (z-score),[3],-0.515
same,glycan array binding signal (z-score),[4],1.69
same,glycan array binding signal (z-score),[5],-0.224
same,glycan array binding signal (z-score),[6],0.239
same,glycan array binding signal (z-score),[7],-0.907
same,glycan array binding signal (z-score),GlcNAc(b1-3)GalNAc,-0.748
same,glycan array binding signal (z-score),GlcNAc(b1-3)Man,-0.956
same,glycan array binding signal (z-score),[8],0.467
same,glycan array binding signal (z-score),[9],0.485
same,glycan array binding signal (z-score),[10],0.51
same,glycan array binding signal (z-score),[11],-0.156
same,glycan array binding signal (z-score),GlcNAc(b1-4)GlcNAc,-0.72
same,glycan array binding signal (z-score),[12],-0.564
same,glycan array binding signal (z-score),[13],0.226
same,glycan array binding signal (z-score),[14],-0.969
same,glycan array binding signal (z-score),[15],-0.913
same,glycan array binding signal (z-score),[16],-1.3
same,glycan array binding signal (z-score),GlcNAc(b1-6)GalNAc,-0.932
same,glycan array binding signal (z-score),[17],0.604
same,glycan array binding signal (z-score),Kdn(a2-3)Gal(b1-3)GalNAc,0.334
same,glycan array binding signal (z-score),Kdn(a2-3)Gal(b1-3)GlcNAc,0.407
same,glycan array binding signal (z-score),Kdn(a2-3)Gal(b1-4)Glc,0.11
same,glycan array binding signal (z-score),Kdn(a2-3)Gal(b1-4)GlcNAc,0.045
same,glycan array binding signal (z-score),[18],-0.428
same,glycan array binding signal (z-score),Kdn(a2-6)Gal(b1-4)GlcNAc,-0.189
same,glycan array binding signal (z-score),[19],-0.338
same,glycan array binding signal (z-score),[20],-0.614
same,glycan array binding signal (z-score),Man(a1-2)Man(a1-3)Man,0.122
same,glycan array binding signal (z-score),[21],0.065
same,glycan array binding signal (z-score),[22],-0.151
same,glycan array binding signal (z-score),[23],-0.27
same,glycan array binding signal (z-score),[24],-0.835
same,glycan array binding signal (z-score),[25],-1.24
same,glycan array binding signal (z-score),[26],-0.366
same,glycan array binding signal (z-score),Man(a1-3)[Man(a1-6)]Man,1.17

# Reformatted with tabs: entries from further up.
binder	measurement	setting	value
B1	glycan array binding signal (z-score)	[7]	-0.907
same	glycan array binding signal (z-score)	[9]	0.485
same	glycan array binding signal (z-score)	Man(a1-3)[Man(a1-6)]Man	1.17
